Assay results reported in PubChem BioAssay AID504843 (Broad Institute, 2011).
The whole screen tested about 1,200 compounds, of which about 360 (30%) were called active. This list was built around the results that the source calls inconclusive (neither active nor inactive); the mix of calls is not that of the screen. How the calls were made is not given here.

Assay: antibacterial activity by ATP level – BacTiter-Glo luminescence, cherry-picked samples, counter-screen, dose response (AID 504843);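 further: growth measured after 8 h incubation at 30 °C; 0% = median of sample compound wells and -100% = antibiotic control wells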
Conditions: bacterial growth; at 15 µM (top of the series)

SMILES	activity change, negative = inhibition
Cc1ccc(NC(=O)NCc2ccccn2)cc1Cl	inactive: 5.48%
O=C(Cn1cc2c(n1)CCCCC2)N1CCc2ccccc2C1	inactive: -1.73%
COc1cc2cc(CN(CCO)S(=O)(=O)c3ccccc3Cl)c(=O)[nH]c2cc1OC	inactive: 0.781%
O=C(Cn1nnc(-c2ccccc2)n1)N/N=C/c1cccc([N+](=O)[O-])c1O	inconclusive: -38.5%
NC1C2CN(c3nc4c(cc3F)c(=O)c(C(=O)O)cn4-c3ccc(F)cc3F)CC12 (centres undefined)	inconclusive: -69.4%
CC(=O)c1ccccc1OCC(O)CN1CCN(C(c2ccccc2)c2ccccc2)CC1 (centres undefined)	inactive: 4.45%
NC1CCN(c2nc3c(cc2F)c(=O)c(C(=O)O)cn3-c2ccc(F)cc2F)C1 (centres undefined)	inconclusive: -22.8%
CC1COc2c(N3CCN(C)CC3)c(F)cc3c(=O)c(C(=O)O)cn1c23 (centres undefined)	inconclusive: -92.9%
O=C1c2ccccc2NC(c2ccc(Cl)cc2Cl)N1O (centres undefined)	inconclusive: -7.51%
COc1ccc(-n2c(Cc3cccn3C)nnc2SCC(=O)NCc2ccc(F)cc2)cc1	inactive: -10.8%
O=C(O)c1cn(-c2ccc(F)cc2)c2cc(N3CCNCC3)c(F)cc2c1=O	inconclusive: -68.3%
C=C1CSc2nc(=O)c3c4c(sc3n21)CCCC4	inactive: -6.35%
Brc1ccc(NC2=Nc3ccccc3CC2)cc1	inactive: -1.59%
COc1c(N2C[C@@H]3CCCN[C@@H]3C2)c(F)cc2c(=O)c(C(=O)O)cn(C3CC3)c12	inconclusive: -60.7%

2 neighbouring records from above, quoted:
SMILES	activity change, negative = inhibition
NC1C2CN(c3nc4c(cc3F)c(=O)c(C(=O)O)cn4-c3ccc(F)cc3F)CC12 (centres undefined)	inconclusive: -69.4%
CC(=O)c1ccccc1OCC(O)CN1CCN(C(c2ccccc2)c2ccccc2)CC1 (centres undefined)	inactive: 4.45%
